This note sets out measurements from doi:10.1101/2020.01.27.920827 (bioRxiv, 2020).

By UniProt entry, the sequences of proteins in these tests, tags left out. Where a name states a change or a piece, a line headed by the entry shows the natural chain unless it says otherwise. Chains listed by the source or under a name are the forms on record and can include a tag or linker. Residues count along the entry.
epsin1 ENTH domain, wild type (Rat Epsin1 WT ENTH 1-164) (O88339, residues 1-164): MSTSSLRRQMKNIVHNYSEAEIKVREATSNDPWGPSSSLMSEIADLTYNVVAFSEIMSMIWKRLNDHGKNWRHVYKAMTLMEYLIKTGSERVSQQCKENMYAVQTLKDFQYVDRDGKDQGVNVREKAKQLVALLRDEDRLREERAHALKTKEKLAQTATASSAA
epsin1 ENTH domain R114A (O88339, form named): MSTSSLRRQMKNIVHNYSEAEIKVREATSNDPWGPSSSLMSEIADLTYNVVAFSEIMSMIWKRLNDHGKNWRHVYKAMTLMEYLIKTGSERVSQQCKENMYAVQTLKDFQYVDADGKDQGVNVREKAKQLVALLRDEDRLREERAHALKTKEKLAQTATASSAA

Read-outs that look alike come from different tables or passages of the source. Results are given in words; binding and its absence hold for the method and conditions named.

What all share (assay): SDS-resistant oligomer bands on SDS-PAGE after liposome co-sedimentation
Assay [1] has as its target epsin1 ENTH domain R114A (rat) (UniProt O88339).
Assay [2] concerns the target epsin1 ENTH domain, wild type (Rat Epsin1 WT ENTH 1-164) (rat) (UniProt O88339).
For assay [3] the target is unchanged. The source holds these as a separate data set.

For “epsin1 ENTH domain R114A (from UniProt O88339 1-164) (domain or fragment)”, the binding entry in assay [1] is given as “no binding (tested: 20 μM)”.

Take “epsin1 ENTH domain, wild type (Rat Epsin1 WT ENTH 1-164) (from UniProt O88339 1-164) (domain or fragment)”: the binding entry in assay [2] is listed as “no binding (condition: LUVs without PS)”; in assay [3] it was “no binding (condition: without LUVs)”.
